Test results published in PubChem BioAssay AID192 (DTP/NCI, 2004).
The list does not hold the whole screen: it is rich in T/C values a quarter to a half above the control, in often repeated tests (any T/C) and in doses without a T/C. Other doses and runs of a compound stand elsewhere. T/C gives the treated animals as a percentage of the vehicle group. Some entries give survivors of the animals treated and no T/C: the source holds a T/C of zero for them, seemingly a mark for toxic or unscored doses. Some survivor counts are full or nearly so, which does not show that the dose was tolerated: survival well below the control is almost never listed, so the zero probably covers shortened survival too. Counts of survivors are from the toxicity check (mostly the fifth day) where no day follows; animals may have died later. Schedules are NCI's codes, taken here to give the interval after Q, in days (D) or hours (H), and the number of doses after X. Some entries were tested several times; the values are given in rising order. Where survival is the endpoint, this PubChem deposit counts one and a half times the control or more as active, and values a quarter to a half above the control carry no call in these data; other NCI protocols may use other cut-offs. Some T/C values carry the count of animals alive at the toxicity check (mostly the fifth day); where none is given, no animal had died by that day.

Tested on: BDF1 mice, B16 melanoma ip, median survival T/C
Experiment: NCI In Vivo Anticancer Drug Screen. Data for tumor model B16 Melanoma (intraperitoneal) in B6D2F1 (BDF1) mice
Conditions: T/C endpoint: median survival time, higher T/C = longer survival
Method: The antitumor activity of compounds was measured in mice bearing transplantable tumors. Survival or tumor size were measured and the results are expressed as the measurement made in the treated group (T) divided by the measurement made in the vehicle treated control group (C). The tumor model used in this assay is B16 Melanoma (intraperitoneal) in B6D2F1 (BDF1) mice

[1] = dose: 12.5 mg/kg/injection, schedule: Q01DX009 (ip), vehicle: Klucel (hydroxypropylcellulose) (HPC)
[2] = dose: 12.5 mg/kg/injection, schedule: Q01DX009 (ip), vehicle: water
[3] = dose: 25.0 mg/kg/injection, schedule: Q01DX009 (ip), vehicle: Klucel (hydroxypropylcellulose) (HPC)
[4] = dose: 400.0 mg/kg/injection, schedule: Q01DX009 (ip), vehicle: Klucel (hydroxypropylcellulose) (HPC)
[5] = dose: 200.0 mg/kg/injection, schedule: Q01DX009 (ip), vehicle: Klucel (hydroxypropylcellulose) (HPC)
[6] = dose: 50.0 mg/kg/injection, schedule: Q01DX009 (ip), vehicle: Klucel (hydroxypropylcellulose) (HPC)
[7] = dose: 100.0 mg/kg/injection, schedule: Q01DX009 (ip), vehicle: Klucel (hydroxypropylcellulose) (HPC)
[8] = dose: 200.0 mg/kg/injection, schedule: Q01DX009 (ip), vehicle: saline

Structure (SMILES): COc1cccc2c1C(=O)c1c(O)c3c(c(O)c1C2=O)C[C@@](O)(C(C)=O)C[C@@H]3OC1CC(N(C)C)C(O)C(C)O1 (stereo not given in full)
- T/C (dose: 2.5 mg/kg/injection, schedule: Q01DX001 (ip), vehicle: water): 128 % of control
- T/C (dose: 5.0 mg/kg/injection, schedule: Q01DX001 (ip), vehicle: water, evaluated on day 50): 103 % of control
- T/C (dose: 5.0 mg/kg/injection, schedule: Q01DX001 (ip), vehicle: water, evaluated on day 60): 122, 124, 170 % of control [9 of 10 alive]
- T/C (dose: 9.6 mg/kg/injection, schedule: Q04DX003 (ip), vehicle: water): 147 % of control
- T/C (dose: 10.0 mg/kg/injection, schedule: Q01DX001 (ip), vehicle: water, evaluated on day 50): 121 % of control
- T/C (dose: 10.0 mg/kg/injection, schedule: Q01DX001 (ip), vehicle: water, evaluated on day 60): 117, 128, 134 % of control
- survivor count (dose: 16.0 mg/kg/injection, schedule: Q04DX003 (ip), vehicle: water): 10 of 10
- T/C (dose: 20.0 mg/kg/injection, schedule: Q01DX001 (ip), vehicle: water, evaluated on day 50): 131 % of control
- T/C (dose: 20.0 mg/kg/injection, schedule: Q01DX001 (ip), vehicle: water, evaluated on day 60): 127 % of control [9 of 10 alive]
- T/C (dose: 20.0 mg/kg/injection, schedule: Q01DX001 (ip), vehicle: water, evaluated on day 75): 103 % of control
- survivor count (dose: 20.0 mg/kg/injection, schedule: Q01DX001 (ip), vehicle: water): 8 of 10, 9 of 10, 10 of 10
- survivor count (dose: 33.3 mg/kg/injection, schedule: Q01DX001 (ip), vehicle: water): 6 of 10 and 10 of 10
- survivor count (dose: 40.0 mg/kg/injection, schedule: Q01DX001 (ip), vehicle: water): 3 of 10 and 10 of 10
- survivor count (dose: 80.0 mg/kg/injection, schedule: Q01DX001 (ip), vehicle: water): 0 of 10 and 2 of 10

Structure (SMILES): CCCCCCCCCCCCCCCC(=O)N(CCCN(CC)CC)C(C)CCCN(CC)CC (stereo not given)
- survivor count [1]: 9 of 10
- survivor count [2]: 10 of 10
- survivor count [3]: 1 of 10

Structure (SMILES): CC(C)(C)c1cc(C[P+](c2ccccc2)(c2ccccc2)c2ccccc2)cc(C(C)(C)C)c1O
- survivor count (dose: 6.5 mg/kg/injection, schedule: Q04DX003 (ip), vehicle: saline): 10 of 10
- survivor count (dose: 7.0 mg/kg/injection, schedule: Q01DX009 (ip), vehicle: saline): 9 of 10
- survivor count (dose: 10.0 mg/kg/injection, schedule: Q01DX009 (ip), vehicle: saline): 5 of 10
- survivor count (dose: 13.0 mg/kg/injection, schedule: Q04DX003 (ip), vehicle: saline): 10 of 10

Structure (SMILES): Nc1ccccc1SC1CC(=O)N(c2cccc(Cl)c2)C1=O (stereo not given)
- survivor count [4]: 9 of 10

Structure (SMILES): CC(N)C(O)c1cccc(O)c1 (stereo not given)
- survivor count (dose: 100.0 mg/kg/injection, schedule: Q01DX009 (ip), vehicle: saline): 5 of 10

Structure (SMILES): C1CC[N-]CC1.C1CC[N-]CC1.[Cl][Pt+2]([Cl])([Cl])[Cl]
- survivor count [4]: 3 of 10

Structure (SMILES): CCOc1ccc([NH-])c([NH-])c1.[Cl][Pt+2][Cl]
- survivor count (dose: 40.0 mg/kg/injection, schedule: Q01DX009 (ip), vehicle: distilled water + Tween-80): 10 of 10

Structure (SMILES): COC1/C=C\C=C(/C)C(=O)NC2=CC(=O)C(N)=C(CC(C)CC(OC)C(O)C(C)C=C(C)C1OC(N)=O)C2=O (stereo not given)
- T/C (dose: 1.5 mg/kg/injection, schedule: Q01DX009 (ip), vehicle: saline with Tween-80): 137 % of control [9 of 10 alive]
- T/C (dose: 3.0 mg/kg/injection, schedule: Q01DX009 (ip), vehicle: saline with Tween-80): 132 % of control
- T/C (dose: 6.0 mg/kg/injection, schedule: Q01DX009 (ip), vehicle: saline with Tween-80): 139 % of control [9 of 10 alive]
- survivor count (dose: 12.5 mg/kg/injection, schedule: Q01DX005 (ip), vehicle: other): 3 of 6
- survivor count (dose: 25.0 mg/kg/injection, schedule: Q01DX005 (ip), vehicle: other): 1 of 6
- survivor count (dose: 50.0 mg/kg/injection, schedule: Q01DX005 (ip), vehicle: other): 0 of 6
- survivor count (dose: 100.0 mg/kg/injection, schedule: Q01DX005 (ip), vehicle: other): 0 of 6
- survivor count (dose: 200.0 mg/kg/injection, schedule: Q01DX005 (ip), vehicle: other): 0 of 6

Structure (SMILES): CC(=O)OC1C(C)OC(OC(=O)C2CCC3C(C2)OC2(CC(OC(=O)/C=C/c4ccccc4)C(C)CO2)C32CO2)C(OC2OC(C)C(O)C(OC(C)=O)C2O)C1O (stereo not given)
- T/C (dose: 3.0 mg/kg/injection, schedule: Q01DX009 (ip), vehicle: saline + alcohol): 148 % of control

Structure (SMILES): O=C(Nc1ccc2c(c1)OCO2)O/N=C1\C(=O)Nc2ccccc21
- T/C (dose: 50.0 mg/kg/injection, schedule: Q04DX003 (ip), vehicle: saline): 138 % of control
- T/C (dose: 100.0 mg/kg/injection, schedule: Q04DX003 (ip), vehicle: saline): 148 % of control

Structure (SMILES): CCNC(=O)OCc1c(COC(=O)NCC)c(-c2ccc(Cl)c(Cl)c2)n2c1CCC2
- T/C (dose: 12.5 mg/kg/injection, schedule: Q01DX009 (ip), vehicle: saline with Tween-80): 144 % of control
- survivor count (dose: 50.0 mg/kg/injection, schedule: Q01DX009 (ip), vehicle: saline with Tween-80): 10 of 10
- survivor count (dose: 100.0 mg/kg/injection, schedule: Q01DX009 (ip), vehicle: saline with Tween-80): 2 of 10

Structure (SMILES): O=C(O)c1ccc2c([N+](=O)[O-])cccc2n1
- survivor count [5]: 0 of 10

Structure (SMILES): CCCCCCCCCCC(O)CN1CCN(c2ccc(C)cc2)CC1 (stereo not given)
- survivor count [6]: 10 of 10
- survivor count [7]: 10 of 10

Structure (SMILES): [F][Sn]([F])([c]1ccccc1)[c]1ccccc1
- survivor count [3]: 0 of 10
- survivor count [6]: 0 of 10
- survivor count [7]: 0 of 10
- survivor count [5]: 0 of 10

Structure (SMILES): C=C(C)[C@@H]1CC[C@]2(C)CC[C@]3(C)[C@H](CC[C@@H]4[C@@]5(C)CC[C@H](O)C(C)(C)[C@@H]5CC[C@]43C)[C@@H]12
- survivor count [1]: 9 of 10
- survivor count [3]: 10 of 10
- survivor count [6]: 10 of 10
- survivor count [7]: 5 of 10

Structure (SMILES): CCN1C=C/C(=C/c2cc3scc(-c4ccccc4)[n+]3c3ccccc23)c2ccccc21
- survivor count (dose: 0.6 mg/kg/injection, schedule: Q01DX009 (ip), vehicle: saline): 9 of 10

Structure (SMILES): C(=C\c1cccnc1)/c1ccncc1
- survivor count (dose: 150.0 mg/kg/injection, schedule: Q01DX009 (ip), vehicle: saline with Tween-80): 5 of 10

Structure (SMILES): CS(=O)(=O)c1cc([N+](=O)[O-])cc([N+](=O)[O-])c1Cl
- survivor count (dose: 5.0 mg/kg/injection, schedule: Q01DX009 (ip), vehicle: saline with Tween-80): 6 of 6
- survivor count (dose: 10.0 mg/kg/injection, schedule: Q01DX009 (ip), vehicle: saline with Tween-80): 6 of 6

Structure (SMILES): OCC(O)c1ccccn1 (stereo not given)
- T/C [8]: 129 % of control

Structure (SMILES): COc1cccc2c1C(=O)c1c(O)c3c(c(O)c1C2=O)C[C@@](O)(C(=O)CN1CCOCC1)C[C@@H]3OC1CC(N)C(O)C(C)O1 (stereo not given in full)
- T/C (dose: 1.56 mg/kg/injection, schedule: Q01DX009 (ip), vehicle: water): 130 % of control

Structure (SMILES): COc1cc(C(O)C(Cl)(Cl)Cl)ccc1O (stereo not given)
- survivor count (dose: 400.0 mg/kg/injection, schedule: Q01DX009 (ip), vehicle: other): 7 of 10

Structure (SMILES): C=CCOc1cccc(OCC=C)c1C
- survivor count (dose: 400.0 mg/kg/injection, schedule: Q01DX009 (ip), vehicle: saline with Tween-80): 10 of 10

Structure (SMILES): CCN(CC)CCOC(=O)C(c1ccccc1)C1CCCCC1 (stereo not given)
- survivor count [8]: 1 of 10
- survivor count (dose: 400.0 mg/kg/injection, schedule: Q01DX009 (ip), vehicle: saline): 0 of 10

Structure (SMILES): CN1N=C(N)c2cn(C3OC(COP(=O)(O)O)C(O)C3O)c3ncnc1c23 (stereo not given)
- survivor count [2]: 10 of 10
- survivor count (dose: 25.0 mg/kg/injection, schedule: Q01DX009 (ip), vehicle: water): 10 of 10
- survivor count (dose: 50.0 mg/kg/injection, schedule: Q01DX009 (ip), vehicle: water): 10 of 10
- survivor count (dose: 100.0 mg/kg/injection, schedule: Q01DX009 (ip), vehicle: water): 8 of 10
- survivor count (dose: 200.0 mg/kg/injection, schedule: Q01DX009 (ip), vehicle: water): 0 of 10
